Experimental data published in publication doi:10.1101/289702.
No constants are given. Whether binding was seen depends on the method and setting. In cells and extracts the contact can be indirect. Some binding calls cover weakened binding; strength is not graded here. Tags and fused reporters may be left off the sequences shown.

Chains of the proteins cited; added tags and fusions are not shown.
UniProt P38486: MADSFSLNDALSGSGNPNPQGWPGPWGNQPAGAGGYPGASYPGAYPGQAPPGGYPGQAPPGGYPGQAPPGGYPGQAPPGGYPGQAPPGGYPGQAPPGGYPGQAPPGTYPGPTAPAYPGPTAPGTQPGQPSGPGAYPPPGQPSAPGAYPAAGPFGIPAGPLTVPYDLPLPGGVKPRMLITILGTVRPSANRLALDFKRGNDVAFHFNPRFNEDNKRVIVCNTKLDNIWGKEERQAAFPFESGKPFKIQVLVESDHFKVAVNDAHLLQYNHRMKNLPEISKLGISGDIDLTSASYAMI

Biological target: T1, cystinosin-GFP fusion protein (UniProt O60931)
T1 sequence: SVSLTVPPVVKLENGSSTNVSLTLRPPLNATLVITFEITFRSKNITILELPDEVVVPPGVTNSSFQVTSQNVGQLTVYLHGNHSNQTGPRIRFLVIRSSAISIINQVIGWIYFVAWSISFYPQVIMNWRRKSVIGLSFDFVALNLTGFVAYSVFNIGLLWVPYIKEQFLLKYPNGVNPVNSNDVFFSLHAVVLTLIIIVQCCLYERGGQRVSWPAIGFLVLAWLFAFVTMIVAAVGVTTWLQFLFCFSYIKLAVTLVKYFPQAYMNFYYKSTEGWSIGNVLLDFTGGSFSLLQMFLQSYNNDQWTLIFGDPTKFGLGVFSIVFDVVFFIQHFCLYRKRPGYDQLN
Experiment: co-IP

binding: binds
Substance: galectin-3 (from UniProt P38486 1-296)
